Assay results published in PubChem BioAssay AID192 (DTP/NCI, 2004).
The list does not hold the whole screen: it gathers tests that were run many times, whatever their T/C, doses with no T/C, and many T/C values between a quarter and a half above the control. Further doses and runs are listed elsewhere. T/C: endpoint of the treated group in % of that of the vehicle group. Some doses have a count of surviving animals in place of a T/C: the source files T/C as zero there, which appears to mark a toxic dose or a test without result, not a measured value. Some doses without a T/C left all or most animals alive at the check, yet need not have been tolerated: survival well below the control is almost never listed, so the zero probably covers shortened survival too. Survivors were counted at the toxicity check, usually on the fifth day, unless a day is given; later deaths do not show. Schedule codes are those of the source, taken here to give the interval after Q, in days (D) or hours (H), and the number of doses after X. For survival time, the PubChem record calls one and a half times the control and up active, and a quarter to a half above the control has no call in these data; cut-offs in other NCI protocols can differ. Brackets with × stand for listed records that agree. Some T/C values are followed by the survivors on the day toxicity was checked, most often the fifth; without a count, all were alive then.

System: BDF1 mice, B16 melanoma ip, median survival T/C
Assay: NCI In Vivo Anticancer Drug Screen. Data for tumor model B16 Melanoma (intraperitoneal) in B6D2F1 (BDF1) mice
Settings: T/C endpoint: median survival time, higher T/C = longer survival
Outline: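 Tumor-bearing mice received test compound or vehicle. Survival or tumor size was then measured in both groups. The treated-group figure was divided by the control-group figure.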

[1] = dose: 12.5 mg/kg/injection, schedule: Q01DX005 (ip), vehicle: other
[2] = dose: 25.0 mg/kg/injection, schedule: Q01DX005 (ip), vehicle: other
[3] = dose: 50.0 mg/kg/injection, schedule: Q01DX005 (ip), vehicle: other
[4] = dose: 100.0 mg/kg/injection, schedule: Q01DX005 (ip), vehicle: other
[5] = dose: 200.0 mg/kg/injection, schedule: Q01DX005 (ip), vehicle: other
[6] = dose: 50.0 mg/kg/injection, schedule: Q01DX009 (ip), vehicle: Klucel (hydroxypropylcellulose) (HPC)

Structure (SMILES): COC1/C=C\C=C(/C)C(=O)NC2=CC(=O)C(N)=C(CC(C)CC(OC)C(O)C(C)C=C(C)C1OC(N)=O)C2=O (stereo not given)
- T/C (dose: 1.5 mg/kg/injection, schedule: Q01DX009 (ip), vehicle: saline with Tween-80): 137 % of control [9 of 10 alive]
- T/C (dose: 3.0 mg/kg/injection, schedule: Q01DX009 (ip), vehicle: saline with Tween-80): 132 % of control
- T/C (dose: 6.0 mg/kg/injection, schedule: Q01DX009 (ip), vehicle: saline with Tween-80): 139 % of control [9 of 10 alive]
- survivor count [1]: 3 of 6
- survivor count [2]: 1 of 6
- survivor count [3]: 0 of 6
- survivor count [4]: 0 of 6
- survivor count [5]: 0 of 6

Structure (SMILES): CN(C)N=Nc1cccc(C(N)=O)c1
- T/C (dose: 40.0 mg/kg/injection, schedule: Q01DX009 (ip), vehicle: Klucel (hydroxypropylcellulose) (HPC)): 126 % of control (2×)
- survivor count (dose: 160.0 mg/kg/injection, schedule: Q01DX009 (ip), vehicle: Klucel (hydroxypropylcellulose) (HPC)): 10 of 10

Structure (SMILES): O=C(O)c1cc2oc3ccccc3c2cc1O
- survivor count (dose: 200.0 mg/kg/injection, schedule: Q01DX009 (ip), vehicle: Klucel (hydroxypropylcellulose) (HPC)): 2 of 10

Structure (SMILES): CC(=O)Nc1cc2c(cc1Br)-c1ccccc1C2O (stereo not given)
- survivor count (dose: 6.25 mg/kg/injection, schedule: Q01DX009 (ip), vehicle: saline with Tween-80): 10 of 10

Structure (SMILES): c1ccc([B-]2([C+]3CCCCC3)N3CCCCC3C3CCCCN32)cc1 (stereo not given)
- survivor count [6]: 5 of 10
- survivor count (dose: 100.0 mg/kg/injection, schedule: Q01DX009 (ip), vehicle: Klucel (hydroxypropylcellulose) (HPC)): 1 of 10

Structure (SMILES): Nc1ccc(F)cc1[N+](=O)[O-]
- T/C (dose: 37.5 mg/kg/injection, schedule: Q01DX009 (ip), vehicle: Klucel (hydroxypropylcellulose) (HPC)): 127 % of control

Structure (SMILES): CCN(CC)CCOC(=O)N(c1ccccc1)c1ccccc1
- survivor count (dose: 200.0 mg/kg/injection, schedule: Q01DX009 (ip), vehicle: saline): 0 of 10
- survivor count (dose: 400.0 mg/kg/injection, schedule: Q01DX009 (ip), vehicle: saline): 0 of 10

Structure (SMILES): CC1(C)N=C(N)N=C(N)N1c1cccc(CCCCc2ccc(Cl)c(S(=O)(=O)F)c2)c1
- survivor count (dose: 25.0 mg/kg/injection, schedule: Q01DX009 (ip), vehicle: Klucel (hydroxypropylcellulose) (HPC)): 3 of 10
- survivor count [6]: 1 of 10

Structure (SMILES): CC(=O)CC(=O)Nc1cc(Cl)c(NC(=O)CC(C)=O)cc1Cl
- T/C (dose: 400.0 mg/kg/injection, schedule: Q04DX003 (ip), vehicle: saline with Tween-80): 132 % of control [9 of 10 alive]

Structure (SMILES): COC1/C=C\C=C(/C)C(=O)Nc2cc3nc4ccc(Br)cc4oc-3c(c2=O)CC(C)CC(OC)C(O)C(C)/C=C(\C)C1OC(N)=O (stereo not given)
- survivor count [1]: 0 of 6
- survivor count [2]: 0 of 6
- survivor count [3]: 0 of 6
- survivor count [4]: 0 of 6
- survivor count [5]: 0 of 6

Structure (SMILES): c1cc[c]([Sn]([c]2ccccc2)([c]2ccccc2)[n]2cccc2)cc1
- survivor count (dose: 12.5 mg/kg/injection, schedule: Q01DX009 (ip), vehicle: saline): 1 of 10
- survivor count (dose: 25.0 mg/kg/injection, schedule: Q01DX009 (ip), vehicle: saline): 1 of 10
- survivor count (dose: 50.0 mg/kg/injection, schedule: Q01DX009 (ip), vehicle: saline): 0 of 10
- survivor count (dose: 100.0 mg/kg/injection, schedule: Q01DX009 (ip), vehicle: saline): 0 of 10

Structure (SMILES): C[C@H]1C[C@@H]2[C@H]([C@@H](O)C[C@@]3(C)[C@H]2CC[C@]3(O)C(=O)CO)[C@@]2(C)C=CC(=O)C=C12
- T/C [6]: 126 % of control

Structure (SMILES): CCC(=O)c1ccc2c(c1)N(CCCN(C)C)c1ccccc1S2
- survivor count (dose: 25.0 mg/kg/injection, schedule: Q01DX009 (ip), vehicle: saline with Tween-80): 9 of 10
- survivor count (dose: 50.0 mg/kg/injection, schedule: Q01DX009 (ip), vehicle: saline with Tween-80): 0 of 10

Structure (SMILES): O=C(C=C(C(F)(F)Cl)C(F)(F)Cl)c1cccs1
- survivor count (dose: 1.25 mg/kg/injection, schedule: Q01DX009 (ip), vehicle: saline): 10 of 10
- survivor count (dose: 2.5 mg/kg/injection, schedule: Q01DX009 (ip), vehicle: saline with Tween-80): 10 of 10
- survivor count (dose: 5.0 mg/kg/injection, schedule: Q01DX009 (ip), vehicle: saline with Tween-80): 4 of 10
- survivor count (dose: 10.0 mg/kg/injection, schedule: Q01DX009 (ip), vehicle: saline with Tween-80): 2 of 10

Structure (SMILES): COc1ccccc1C(C#N)N1CCCN(C(C#N)c2ccccc2OC)C1c1cc(Cl)cc(Cl)c1O (stereo not given)
- survivor count (dose: 100.0 mg/kg/injection, schedule: Q01DX009 (ip), vehicle: saline with Tween-80): 10 of 10
- survivor count (dose: 200.0 mg/kg/injection, schedule: Q01DX009 (ip), vehicle: saline with Tween-80): 10 of 10
- survivor count (dose: 400.0 mg/kg/injection, schedule: Q01DX009 (ip), vehicle: saline with Tween-80): 10 of 10

Structure (SMILES): CS(=O)(=O)OCC1CCCCO1 (stereo not given)
- survivor count (dose: 200.0 mg/kg/injection, schedule: Q04DX003 (ip), vehicle: Klucel (hydroxypropylcellulose) (HPC)): 6 of 10
